Laboratory results taken from PubChem BioAssay AID624405 (Broad Institute, 2012).
In all, about 1,900 compounds went through this assay and about 250 (13%) were called active. About 4% were inconclusive and are not listed.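 Rule for the calls: active = fitted curve reaches 40% rescue activity at or below the top valid dose, in every test run; inconclusive = test runs disagree, some active and some inactive; inactive = every run misses the threshold or moves the wrong way.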 The list shows a part of the results, in another mix than the full data. Entries with a potency or affinity are not part of this list.

Assay: suppressors of statin myotoxicity in myotubes, dose response, cell-based, C2C12 myotubes, ATP luminescence, cherry pick (AID 624405);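 note: myotubes are challenged with simvastatin at 10 µM to lower ATP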
Conditions: C2C12 myotubes + simvastatin, 48 h, scaled: DMSO wells 0, geranylgeraniol wells 100; at 19.5 µM (top of the series) unless noted

Compound | rescue activity (ATP increase)
COc1ccc(S(=O)(=O)Nc2cccc3c2O[C@H](CN(C)C(=O)Nc2ccc(C(F)(F)F)cc2)[C@H](C)CN([C@H](C)CO)C3=O)cc1 | inactive: 36.2%
CCN(CC)C(=O)CSc1ccccc1N | inactive: 7.47%
CCOC(=O)c1c(N)c(C#N)c2n1CCCC2 | inactive: -5.84%
Cc1ccc(CSc2nnc3nc(C)cc(C)n23)cc1 | inactive: -2.42%
CC(C)c1ccc(NS(=O)(=O)c2ccc(-n3cccn3)cc2)cc1 | inactive: 7.18%
COc1ccc(S(=O)(=O)Nc2cccc3c2O[C@@H](CN(C)C(=O)Nc2ccc(F)cc2)[C@H](C)CN([C@@H](C)CO)C3=O)cc1 | inactive: 2.58%
C[C@@H]1CN([C@H](C)CO)C(=O)c2cccc(NS(=O)(=O)c3cccs3)c2O[C@H]1CN(C)C(=O)Nc1ccc(C(F)(F)F)cc1 | inactive: -9.09%
COc1ccc(NC(=O)Nc2ccc3c(c2)C(=O)N([C@@H](C)CO)C[C@H](C)[C@H](CN(C)Cc2ccc(C(F)(F)F)cc2)OCCCC[C@H](C)O3)cc1 | inactive: -13.3%
CCc1nc2ccccc2n(CCOCCOCCn2c(=O)c(CC)nc3ccccc32)c1=O | inactive: -42.8%
C[C@H]1CCCCO[C@H](CN(C)C(=O)Nc2cccc3ccccc23)[C@@H](C)CN([C@@H](C)CO)C(=O)c2cc(NC(=O)Nc3ccc4c(c3)OCO4)ccc2O1 | inactive: 11.2% [at 21 µM]
C[C@@H]1CN([C@@H](C)CO)C(=O)c2cc(NC(=O)Cc3ccccc3)ccc2O[C@@H](C)CCCCO[C@H]1CN(C)C(=O)C1CCCCC1 | inactive: 5.55%
CSc1nc(NC(C)=O)nc(C)c1Cl | inactive: 9.43%
COc1cc(C(=O)OCCN2CCOCC2)ccc1O | inactive: 0.799%
O=C(CSc1ccc2c(c1)OCCO2)Nc1ccc(Br)cc1 | inactive: 38.9%
O=C(Nc1cccc(-n2cnnn2)c1)c1ccco1 | inactive: 11%
CCOC(=O)C1(C)NC(c2ccc(N(C)C)cc2)C2C(=O)N(c3ccc(OC)cc3)C(=O)C21 (configuration not stated) | inactive: -13.4%
COc1ccc(S(=O)(=O)Nc2ccc3c(c2)C(=O)N([C@@H](C)CO)C[C@H](C)[C@H](CN(C)S(=O)(=O)c2ccc(F)cc2)OCCCC[C@H](C)O3)cc1 | inactive: -20%
C[C@@H]1CCCCO[C@@H](CN(C)Cc2ccccc2)[C@@H](C)CN([C@H](C)CO)C(=O)c2cc(NC(=O)Nc3ccc4c(c3)OCO4)ccc2O1 | inactive: -8.81%
C[C@H](CO)N1C[C@H](C)[C@H](CN(C)C(=O)C2CCCCC2)Oc2ncc(C#CC3CCCCC3)cc2C1=O | inactive: -3.25%
COc1ccccc1-c1noc(-c2ccncc2)n1 | inactive: 8.68%
CN1c2ccc(Br)cc2[C@H]2[C@H](CCN2C(=O)C2CC2)[C@H]1CO | inactive: 36.7% [at 21 µM]
COc1ccc(C#Cc2ccc([C@H]3[C@H]4CN(C(=O)c5ccncc5)CCCCN4[C@H]3CO)cc2)cc1 | inactive: 28.5% [at 21 µM]
Cc1[nH]nc2c1C(c1ccsc1)C(C#N)=C(N)O2 (configuration not stated) | inactive: 15.8%
Cc1cc(C)c2c(CN3CCN(Cc4ccc5c(c4)OCO5)CC3)cc(=O)oc2c1 | inactive: 3.37%

Some of these compounds in order of formula weight, rising.
Compound | rescue activity (ATP increase)
CN1c2ccc(Br)cc2[C@H]2[C@H](CCN2C(=O)C2CC2)[C@H]1CO | inactive: 36.7% [at 21 µM]
C[C@H](CO)N1C[C@H](C)[C@H](CN(C)C(=O)C2CCCCC2)Oc2ncc(C#CC3CCCCC3)cc2C1=O | inactive: -3.25%
COc1ccc(S(=O)(=O)Nc2ccc3c(c2)C(=O)N([C@@H](C)CO)C[C@H](C)[C@H](CN(C)S(=O)(=O)c2ccc(F)cc2)OCCCC[C@H](C)O3)cc1 | inactive: -20%

Additional compounds

Compound | rescue activity (ATP increase)
O=C(COc1ccccc1)Nc1nn[nH]n1 | inactive: 21.2%
Cc1oc(C(=O)O)cc1COc1cccc2cccnc12 | inactive: -12.5%
O=c1c2c([nH]c3ccc(Br)cc13)CCCC2 | inactive: -17.7%
COc1ccc(S(=O)(=O)Nc2cccc3c2O[C@H](CN(C)S(=O)(=O)c2ccc(Cl)cc2)[C@H](C)CN([C@@H](C)CO)C3=O)cc1 | inactive: 23%
COC(=O)CCC(=O)NNC(=O)c1ccc(Br)cc1 | inactive: -6.21%
CCCOc1cc(C)c(Cl)cc1S(=O)(=O)N(CC)CC | inactive: 4.93%
C[C@H](CO)N1C[C@H](C)[C@@H](CN(C)Cc2ccc(Oc3ccccc3)cc2)Oc2ccc(NC(=O)Nc3cccc4ccccc34)cc2CC1=O | inactive: -6.91%
C[C@@H]1CN([C@H](C)CO)S(=O)(=O)c2ccc(/C=C/c3ccccc3)cc2O[C@@H]1CN(C)C(=O)NC1CCCC1 | inactive: 2.94%
C[C@H]1CN([C@@H](C)CO)C(=O)c2cc(NC(=O)c3ccncc3)ccc2O[C@H]1CN(C)Cc1ccc(Oc2ccccc2)cc1 | inactive: -18.6%
O=C(C[C@H]1CC[C@@H]2[C@H](COC[C@H](O)CN2Cc2ccc(Oc3ccccc3)cc2)O1)N1CCN(c2ccccc2)CC1 | inactive: -13.6%
Cc1ccc(Cn2ncc3c(NCCCN(C)C)ncnc32)cc1 | inactive: 23.2%
Nc1cccc2c1C(=O)N(C(=O)c1cccc(S(=O)(=O)N3CCCC3)c1)C2=O | inactive: -5.95%
Cc1noc(C)c1S(=O)(=O)Nc1ccc2c(c1)C(=O)N([C@H](C)CO)C[C@@H](C)[C@@H](CN(C)S(=O)(=O)c1ccc(Cl)cc1)OCCCC[C@H](C)O2 | inactive: -40.2%
C[C@@H]1CCCCO[C@H](CN(C)S(=O)(=O)c2cccs2)[C@@H](C)CN([C@H](C)CO)C(=O)c2cc(NC(=O)Nc3ccc(F)cc3)ccc2O1 | inactive: -0.785% [at 21 µM]
Cc1ccc(S(=O)(=O)N(C)C[C@H]2Oc3ccc(NC(=O)Cc4ccccc4)cc3CC(=O)N([C@@H](C)CO)C[C@@H]2C)cc1 | inactive: 10.6%
C[C@@H]1CN([C@H](C)CO)C(=O)c2cc(NC(=O)Cc3cn(C)c4ccccc34)ccc2O[C@@H]1CN(C)C(=O)Nc1ccc2c(c1)OCO2 | inactive: 1.17%
CCCCNC(=O)c1ccc(CS(=O)(=O)c2cccc(C(F)(F)F)c2)o1 | inactive: 5.19% [at 10 µM]
CCc1nnc(SCC(=O)Nc2ccc(C(C)=O)cc2)nc1CC | inactive: -14.8%
O=C(c1cnccn1)N1CCN(C/C=C/c2ccccc2)CC1 | inactive: 16.1%
C[C@H](CO)N1C[C@H](C)[C@@H](CN(C)Cc2ccc(C(F)(F)F)cc2)Oc2ccc(NC(=O)Cc3ccccc3)cc2CC1=O | inactive: 28.5%
C[C@H](CO)N1C[C@H](C)[C@@H](CN(C)S(=O)(=O)c2ccccc2)OCCCC[C@H](C)Oc2ccc(N(C)C)cc2C1=O | inactive: -3.9%
N#Cc1ccc(NC(=O)c2cc(-c3cccs3)on2)cc1 | inactive: 36.1%
CCCC(=O)Nc1ccc2c(c1)nc(CN1CCN(C(C)=O)CC1)n2C | inactive: 8.12%
C[C@@H]1CN([C@H](C)CO)C(=O)c2cc(NC(=O)Nc3ccccc3)ccc2O[C@@H](C)CCCCO[C@@H]1CN(C)Cc1ccc(Cl)c(Cl)c1 | inactive: 0.896%

Compound | rescue activity (ATP increase)
CN(C)C(CNC(=O)NC1CCCCC1)c1cccnc1 (configuration not stated) | inactive: 3.47%
C[C@H]1CCCCO[C@H](CN(C)S(=O)(=O)c2cccs2)[C@@H](C)CN([C@@H](C)CO)C(=O)c2cc(NC(=O)Nc3ccc(F)cc3)ccc2O1 | inactive: -16.9%
Cc1cc(C)nc(-n2nc(C)c3c(C(F)F)cc(C)nc32)n1 | inactive: 24.7%
COc1cccc(C#Cc2ccc3c(c2)O[C@@H](CN(C)C(=O)CN2CCOCC2)[C@H](C)CN([C@@H](C)CO)S3(=O)=O)c1 | inactive: -12.1%
C[C@H](CO)N1C[C@H](C)[C@@H](CN(C)CC2CCCCC2)Oc2ccc(NC(=O)Nc3cccc4ccccc34)cc2C1=O | inactive: 4.47%
CCC(=O)N1CCc2cc(S(=O)(=O)NCCCN3CCN(Cc4ccccc4)CC3)ccc21 | inactive: 6.61%
C[C@H]1CCCCO[C@H](CN(C)C(=O)C2CCCCC2)[C@@H](C)CN([C@@H](C)CO)C(=O)c2cc(NC(=O)NC3CCCCC3)ccc2O1 | inactive: 17.2% [at 21 µM]
Cc1sc2nc3ccc(N4CCCCC4)nn3c(=O)c2c1C | inactive: -16.1%
COc1cccc(C(=O)n2ccc(-c3cccs3)n2)c1 | inactive: 3.36%
CC(C)C[C@H](NC(=O)c1[nH]cnc1C(=O)N[C@@H](Cc1ccccc1)C(=O)OCc1ccccc1)C(=O)OCc1ccccc1 | inactive: 25.9%
C[C@H](CO)N1C[C@H](C)[C@H](CN(C)S(=O)(=O)c2ccccc2)Oc2ncc(C#Cc3ccc(F)cc3)cc2C1=O | inactive: -77.8% [at 21 µM]
CN1CCN(c2nc3c(c(=O)n(C)c(=O)n3C)n2Cc2cccc3ccccc23)CC1 | inactive: 32.6%
CCCCCC1CC(CC(=O)O)C(=O)O1 (configuration not stated) | inactive: 17.5%
C[C@H]1CN([C@@H](C)CO)S(=O)(=O)c2ccc(C3=CCCC3)cc2O[C@H]1CN(C)C(=O)Nc1ccc2c(c1)OCO2 | inactive: 8.35%
O=c1[nH]c2ccccc2nc1/C=C/c1ccc(Cl)cc1 | inactive: -51.8%
O=c1c2[nH]c3cccc(Cl)c3c2ncn1CCN1CCCCC1 | inactive: -3.58%
C[C@@H]1CN([C@H](C)CO)C(=O)c2cc(C3=CCCCC3)cnc2O[C@@H]1CN(C)C(=O)c1ccccn1 | inactive: 5.53%
CC(c1nc2ccccc2c(=O)[nH]1)N1CCN(C)CC1 (configuration not stated) | inactive: -6.72%
Cc1cccc(OCC(=O)Nc2cc(C)ccc2O)c1 | inactive: 23.5%
CC1(C)CNC(=O)c2sc(NC(=O)CN3CCOCC3)nc2C1 | inactive: -18.2%
C[C@@H]1CN([C@@H](C)CO)C(=O)c2cccc(N(C)C)c2O[C@@H]1CN(C)Cc1ccc(Oc2ccccc2)cc1 | inactive: 4.56%
Cc1nnc(NC(=O)C2CCCN(S(=O)(=O)Cc3ccccc3)C2)s1 (configuration not stated) | inactive: 8.89%
O=C(CSc1nnnn1-c1cccc2c1CCCC2)N1CCCCC1 | inactive: 5.11%
C[C@H]1CN([C@@H](C)CO)C(=O)c2cc(C3=CCCCC3)cnc2O[C@H]1CN(C)C(=O)C1CCOCC1 | inactive: 17.4%
